{"source": "paper PMC3751566", "molecular_target": "T1, Protein-tyrosine phosphatase 1B substrate-trapping mutant D181A (UniProt P18031)", "T1 sequence": "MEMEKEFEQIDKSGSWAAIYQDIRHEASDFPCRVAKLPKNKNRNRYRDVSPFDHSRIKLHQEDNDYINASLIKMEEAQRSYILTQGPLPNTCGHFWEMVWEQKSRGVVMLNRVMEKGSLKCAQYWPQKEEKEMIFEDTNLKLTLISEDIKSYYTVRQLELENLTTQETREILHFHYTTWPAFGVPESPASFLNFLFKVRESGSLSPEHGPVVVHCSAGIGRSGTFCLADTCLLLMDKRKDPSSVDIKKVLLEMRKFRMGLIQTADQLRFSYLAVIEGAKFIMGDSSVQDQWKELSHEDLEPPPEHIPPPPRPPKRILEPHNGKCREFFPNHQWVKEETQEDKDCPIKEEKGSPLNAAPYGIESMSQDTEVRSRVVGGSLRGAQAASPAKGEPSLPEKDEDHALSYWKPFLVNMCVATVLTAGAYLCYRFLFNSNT", "experiment": "affinity purification with mass spectrometry; substrate trapping with the PTP1B D/A mutant in adipocytes and mass spectrometry; methods not given here (ref. 30)", "note": "No constants are given. Whether binding was seen depends on the method and setting. Binding seen in cells or lysates may run through a third protein. Here binding means that the protein was enriched with, or labelled near, the bait; the list need not be complete."}
{"binder": "Munc18c (endogenous) (protein, UniProt Q60770 1-592) MAPPVSERGLKSVVWRKIKTAVFDDCRKEGEWKIMLLDEFTTKLLSSCCKMTDLLEEGITVIENIYKNREPVRQMKALYFISPTPKSVDCFLRDFGSKSEKKYKAAYIYFTDFCPDSLFNKIKASCSKSIRRCKEINISFIPQESQVYTLDVPDAFYYCYSPDPSNASRKEVVMEAMAEQIVTVCATLDENPGVRYKSKPLDNASKLAQLVEKKLEDYYKIDEKGLIKGKTQSQLLIIDRGFDPVSTVLHELTFQAMAYDLLPIENDTYKYKTDGKEKEAVLEEDDDLWVRVRHRHIAVVLEEIPKLMKEISSTKKATEGKTSLSALTQLMKKMPHFRKQISKQVVHLNLAEDCMNKFKLNIEKLCKTEQDLALGTDAEGQRVKDSMLVLLPVLLNKNHDNCDKIRAVLLYIFGINGTTEENLDRLIHNVKIEDDSDMIRNWSHLGVPIVPPSQQAKPLRKDRSAEETFQLSRWTPFIKDIMEDAIDNRLDSKEWPYCSRCPAVWNGSGAVSARQKPRTNYLELDRKNGSRLIIFVIGGITYSEMRCAYEVSQAHKSCEVIIGSTHILTPRKLLDDIKMLNKSKDKVSFKDE", "values": [{"measurement": "binding", "value": "binds"}]}
